Consider one substance from paper doi:10.1101/2025.09.29.679208.

The chains behind the UniProt entries cited, without tags or fusion partners. Where a name states a change or a piece, a line headed by the entry shows the natural chain unless it says otherwise.
UniProt Q8N6T7: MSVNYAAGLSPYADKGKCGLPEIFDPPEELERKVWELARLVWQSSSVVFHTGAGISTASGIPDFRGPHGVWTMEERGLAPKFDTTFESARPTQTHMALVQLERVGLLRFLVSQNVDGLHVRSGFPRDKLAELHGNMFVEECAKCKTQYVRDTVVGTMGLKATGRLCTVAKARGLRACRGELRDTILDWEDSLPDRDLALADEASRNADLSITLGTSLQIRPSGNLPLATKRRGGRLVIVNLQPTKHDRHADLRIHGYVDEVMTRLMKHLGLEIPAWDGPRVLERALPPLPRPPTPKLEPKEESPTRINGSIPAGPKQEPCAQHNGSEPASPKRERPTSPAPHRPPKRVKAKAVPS
UniProt P08670: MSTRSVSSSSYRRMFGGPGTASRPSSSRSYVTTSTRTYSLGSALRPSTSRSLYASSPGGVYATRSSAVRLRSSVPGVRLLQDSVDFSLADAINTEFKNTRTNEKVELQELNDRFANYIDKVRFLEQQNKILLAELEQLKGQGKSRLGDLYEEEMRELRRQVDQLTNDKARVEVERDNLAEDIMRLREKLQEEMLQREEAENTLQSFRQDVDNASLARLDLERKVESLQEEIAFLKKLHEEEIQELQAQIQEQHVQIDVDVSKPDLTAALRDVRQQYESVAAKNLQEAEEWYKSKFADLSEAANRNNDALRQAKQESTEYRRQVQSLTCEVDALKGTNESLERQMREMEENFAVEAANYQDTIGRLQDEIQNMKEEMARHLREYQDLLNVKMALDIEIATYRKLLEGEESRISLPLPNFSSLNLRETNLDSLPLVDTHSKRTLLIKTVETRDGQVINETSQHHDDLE

The assay deals with centenarian SIRT6 protein (CentSIRT6; N308K and A313S) (human (endogenous in hMSCs)) (UniProt Q8N6T7). In words: affinity purification with mass spectrometry.

No constants are given. Whether binding was seen depends on the method and setting. In cells and extracts the contact can be indirect. A yes stands for co-enrichment or nearness to the bait. Other partners may have been found.

On to “vimentin (VIM) (from UniProt P08670 1-466)”, for which the binding result is recorded as “binds”.
